Assay [1] deals with T1, SRF in the cell extract of the EMSA (UniProt P11831).
T1 sequence: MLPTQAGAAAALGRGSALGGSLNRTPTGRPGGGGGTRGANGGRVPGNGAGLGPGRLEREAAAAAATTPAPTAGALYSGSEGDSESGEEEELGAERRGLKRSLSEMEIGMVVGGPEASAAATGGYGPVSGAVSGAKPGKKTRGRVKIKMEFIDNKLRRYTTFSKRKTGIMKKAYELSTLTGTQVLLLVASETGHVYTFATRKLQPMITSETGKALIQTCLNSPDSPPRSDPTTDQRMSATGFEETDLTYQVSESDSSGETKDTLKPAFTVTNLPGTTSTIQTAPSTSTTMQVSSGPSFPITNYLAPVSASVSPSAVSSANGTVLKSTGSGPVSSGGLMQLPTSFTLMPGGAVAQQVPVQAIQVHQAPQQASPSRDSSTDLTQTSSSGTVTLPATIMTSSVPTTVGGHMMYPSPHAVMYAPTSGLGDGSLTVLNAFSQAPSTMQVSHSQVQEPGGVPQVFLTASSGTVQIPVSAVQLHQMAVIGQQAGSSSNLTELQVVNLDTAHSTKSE
Briefly: native gel or EMSA; labelled IL6 promoter CArG probe (10 fmol), 2 μg of extract and 1 μg of GST-tagged YAP (51–394), 2 h at 4 °C, EMSA buffer (15 mM HEPES-KOH pH 7.9, 42 mM NaCl, 2 mM MgCl2); 5% polyacrylamide gel in TBE; the complex holds DNA; only the binder purified. A general note: Mobility shift assays separate free from complexed probe on a gel.

The target of assay [2] is T2, S-tag-Flag-SRF (serum response factor), expressed in 293T cells (UniProt P11831).
T2 sequence: T1 sequence
Kind of assay: pull-down; S-tag-Flag-SRF from 1 mg of 293T extract held on protein S agarose, washed five times with binding buffer with 500 mM LiCl; incubated with 50 μg of GST protein and 100 units of benzonase overnight at 4 °C; both purified.

These are yes or no findings as the source states them, for the method shown. Binding calls can cover weak binding; strength is not graded here. For some assays here: In cells and extracts the contact can be indirect. For some assays here: Tags and fused reporters may be left off the sequences shown.

As for “GST-tagged YAP (51–394) (from UniProt P46937-2) (domain or fragment)”, the binding result in assay [1] and in assay [2] was “binds” in each case.

These data come from PMC4703869.
